Experimental data taken from article PMC6938514.
These are yes or no findings as the source states them, for the method shown.

Target: 6xHis-KFL_(PYK2) (UniProt Q14289)
Assay: MST; 6xHis-tagged protein labelled with HisTag Ni-NTA dye, 0.05 uM; the same protein serially diluted from 200 uM; 20 mM HEPES pH 7.5, 150 mM NaCl, 1 mM DTT, 0.05% Tween-20; 25 °C; both purified

6xHis-KFL_(PYK2) (from UniProt Q14289 790-839) (domain or fragment)
binding: no binding (tested: 200 μM)
